Source: publication PMC11154705, “Spatio-temporal control of asymmetric septum positioning during sporulation in Bacillus subtilis” (The Journal of Biological Chemistry, 2024)
Results are given in words; binding and its absence hold for the method and conditions named. Binding can be weak; no strength is given. For part of these data: Sequences can lack the tags named with a protein.

Columns and labels:
[1] = biological target: T1, His-tagged cytosolic part of SpoIIE (375-827 aa) (B. subtilis) (UniProt P37475); test: SEC; Superdex S200 16/60 in 50 mM Tris-HCl pH 8.5, 300 mM NaCl; proteins applied separately or mixed (350 ul RefZ 28.8 uM premixed with 350 ul cyt-SpoIIE 15.5 uM, dialyzed overnight, 500 ul loaded); fractions analysed by anti-His Western blot; both purified
T1 sequence: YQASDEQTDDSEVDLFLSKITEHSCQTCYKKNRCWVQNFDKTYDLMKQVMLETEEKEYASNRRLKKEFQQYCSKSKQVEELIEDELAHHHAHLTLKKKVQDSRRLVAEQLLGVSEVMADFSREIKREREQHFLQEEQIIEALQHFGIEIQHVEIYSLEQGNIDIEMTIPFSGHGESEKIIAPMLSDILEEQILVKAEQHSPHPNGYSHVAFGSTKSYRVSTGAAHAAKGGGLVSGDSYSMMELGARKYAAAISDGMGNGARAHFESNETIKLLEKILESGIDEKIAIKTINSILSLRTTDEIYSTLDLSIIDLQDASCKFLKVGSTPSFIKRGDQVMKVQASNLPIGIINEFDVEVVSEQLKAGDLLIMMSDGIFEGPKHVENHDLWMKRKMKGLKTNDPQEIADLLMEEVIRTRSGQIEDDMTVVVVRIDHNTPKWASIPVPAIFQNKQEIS

DivIVA (B. subtilis) = biological target: T2, DivIVA (B. subtilis) (UniProt P71021); test: two-hybrid; bacterial two-hybrid (BACTH): fusions to adenylate cyclase fragments T18 and T25 cotransformed into E. coli BTH101 (delta cya); spotted on LB plates with X-Gal and 0.5 mM IPTG, 24 to 48 h at 30 °C; beta-galactosidase activity in Miller units
T2 sequence: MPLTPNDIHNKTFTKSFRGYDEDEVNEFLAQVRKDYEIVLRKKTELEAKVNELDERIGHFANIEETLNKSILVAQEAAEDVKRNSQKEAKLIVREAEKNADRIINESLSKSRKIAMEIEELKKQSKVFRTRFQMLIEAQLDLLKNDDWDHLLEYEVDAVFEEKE

RefZ (B. subtilis) = test: as above

Q: With “His-tagged RefZ with His-tag fused to its N terminus (B. subtilis)” as the molecule, how does the binding [1] read?
A: Its binding is “binds”.

Q: How did the binding (DivIVA (B. subtilis)) turn out when “SpoIIE membrane domain D1 + the regulatory domain D2 (D1D2-IIE) (B. subtilis) (domain or fragment)” was run?
A: The binding was “binds”.

B1: SpoIIE (protein, UniProt P37475 1-827)
chain: MEKAERRVNGPMAGQALEKLQSFFNRGTKLVTHHLHSLFFYKGFIYVVIGFLLGRAFILSEVLPFALPFFGAMLLIRRDKAFYAVLAVLAGALTISPKHSLLILAALLAFFVFSKVAAFITDDRVKALPIVVFFSMAAARAGFVYAQNGVFTTYDYVMAIVEAGLSFILTLIFLQSLPIFTVKKVKQSLKIEEIICFMILIASVLTGLAGLSYQGMQAEHILARYVVLSFSFIGGASIGCTVGVVTGLILGLANIGNLYQMSLLAFSGLLGGLLKEGKKAGAAIGLIVGSLLISLYGEGSAGLMTTLYESLIAVCLFLLTPQSITRKVARYIPGTVEHLQEQQQYARKIRDVTAQKVDQFSNVFHALSESFATFYQASDEQTDDSEVDLFLSKITEHSCQTCYKKNRCWVQNFDKTYDLMKQVMLETEEKEYASNRRLKKEFQQYCSKSKQVEELIEDELAHHHAHLTLKKKVQDSRRLVAEQLLGVSEVMADFSREIKREREQHFLQEEQIIEALQHFGIEIQHVEIYSLEQGNIDIEMTIPFSGHGESEKIIAPMLSDILEEQILVKAEQHSPHPNGYSHVAFGSTKSYRVSTGAAHAAKGGGLVSGDSYSMMELGARKYAAAISDGMGNGARAHFESNETIKLLEKILESGIDEKIAIKTINSILSLRTTDEIYSTLDLSIIDLQDASCKFLKVGSTPSFIKRGDQVMKVQASNLPIGIINEFDVEVVSEQLKAGDLLIMMSDGIFEGPKHVENHDLWMKRKMKGLKTNDPQEIADLLMEEVIRTRSGQIEDDMTVVVVRIDHNTPKWASIPVPAIFQNKQEIS
Q: B1 was tested. Which binding (RefZ (B. subtilis)) did it give?
A: The binding was “binds”.
